Experimental data published in the supplement of paper PMC10849652.
Some of the results follow.

Amino acid sequences for entries named in this document (tags omitted). A change or cut given only in a name is not applied to a line headed by its entry.
UniProt Q5C9Z4: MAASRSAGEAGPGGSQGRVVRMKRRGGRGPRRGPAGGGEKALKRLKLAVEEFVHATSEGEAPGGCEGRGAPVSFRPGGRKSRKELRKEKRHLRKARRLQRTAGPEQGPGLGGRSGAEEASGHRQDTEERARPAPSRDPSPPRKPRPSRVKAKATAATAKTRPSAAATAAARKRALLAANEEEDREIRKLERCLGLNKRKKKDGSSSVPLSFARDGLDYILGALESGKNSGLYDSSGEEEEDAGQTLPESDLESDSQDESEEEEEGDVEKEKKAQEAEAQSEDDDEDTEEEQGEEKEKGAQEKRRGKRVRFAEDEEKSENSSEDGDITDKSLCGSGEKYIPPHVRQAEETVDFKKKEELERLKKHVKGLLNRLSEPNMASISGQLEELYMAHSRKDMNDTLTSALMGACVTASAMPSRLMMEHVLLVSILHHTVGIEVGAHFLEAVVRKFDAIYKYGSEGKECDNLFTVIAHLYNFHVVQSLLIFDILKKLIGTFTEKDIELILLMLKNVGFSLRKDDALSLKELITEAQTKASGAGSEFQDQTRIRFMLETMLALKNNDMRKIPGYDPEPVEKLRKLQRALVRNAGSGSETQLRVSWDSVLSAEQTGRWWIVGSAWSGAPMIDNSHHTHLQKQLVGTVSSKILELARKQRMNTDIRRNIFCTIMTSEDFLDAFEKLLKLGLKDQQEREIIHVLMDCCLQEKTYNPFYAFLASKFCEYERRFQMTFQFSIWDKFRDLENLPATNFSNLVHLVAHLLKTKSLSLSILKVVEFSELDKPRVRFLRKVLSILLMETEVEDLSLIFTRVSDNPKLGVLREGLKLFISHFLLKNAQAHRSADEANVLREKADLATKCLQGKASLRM
UniProt Q92686, whole entry, looked up: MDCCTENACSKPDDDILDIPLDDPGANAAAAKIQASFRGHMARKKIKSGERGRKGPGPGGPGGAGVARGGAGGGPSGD
UniProt Q9UK39: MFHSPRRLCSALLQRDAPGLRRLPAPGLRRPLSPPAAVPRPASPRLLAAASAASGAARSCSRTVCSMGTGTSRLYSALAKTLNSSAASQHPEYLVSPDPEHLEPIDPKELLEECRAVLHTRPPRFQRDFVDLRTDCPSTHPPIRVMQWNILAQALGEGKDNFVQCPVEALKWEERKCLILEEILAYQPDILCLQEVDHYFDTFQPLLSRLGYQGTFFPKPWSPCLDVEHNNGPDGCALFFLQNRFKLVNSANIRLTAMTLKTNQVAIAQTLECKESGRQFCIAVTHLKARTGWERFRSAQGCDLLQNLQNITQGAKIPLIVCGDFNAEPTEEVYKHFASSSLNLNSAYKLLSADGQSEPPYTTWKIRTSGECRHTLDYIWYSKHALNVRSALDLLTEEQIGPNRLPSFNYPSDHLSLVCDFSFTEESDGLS
UniProt Q9GZP1: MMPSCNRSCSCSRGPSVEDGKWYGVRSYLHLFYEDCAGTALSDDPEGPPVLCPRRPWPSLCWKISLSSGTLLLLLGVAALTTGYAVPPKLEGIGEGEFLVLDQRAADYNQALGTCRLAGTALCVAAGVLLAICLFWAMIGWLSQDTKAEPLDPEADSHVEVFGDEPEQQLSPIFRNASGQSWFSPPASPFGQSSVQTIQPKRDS
UniProt Q76FK4: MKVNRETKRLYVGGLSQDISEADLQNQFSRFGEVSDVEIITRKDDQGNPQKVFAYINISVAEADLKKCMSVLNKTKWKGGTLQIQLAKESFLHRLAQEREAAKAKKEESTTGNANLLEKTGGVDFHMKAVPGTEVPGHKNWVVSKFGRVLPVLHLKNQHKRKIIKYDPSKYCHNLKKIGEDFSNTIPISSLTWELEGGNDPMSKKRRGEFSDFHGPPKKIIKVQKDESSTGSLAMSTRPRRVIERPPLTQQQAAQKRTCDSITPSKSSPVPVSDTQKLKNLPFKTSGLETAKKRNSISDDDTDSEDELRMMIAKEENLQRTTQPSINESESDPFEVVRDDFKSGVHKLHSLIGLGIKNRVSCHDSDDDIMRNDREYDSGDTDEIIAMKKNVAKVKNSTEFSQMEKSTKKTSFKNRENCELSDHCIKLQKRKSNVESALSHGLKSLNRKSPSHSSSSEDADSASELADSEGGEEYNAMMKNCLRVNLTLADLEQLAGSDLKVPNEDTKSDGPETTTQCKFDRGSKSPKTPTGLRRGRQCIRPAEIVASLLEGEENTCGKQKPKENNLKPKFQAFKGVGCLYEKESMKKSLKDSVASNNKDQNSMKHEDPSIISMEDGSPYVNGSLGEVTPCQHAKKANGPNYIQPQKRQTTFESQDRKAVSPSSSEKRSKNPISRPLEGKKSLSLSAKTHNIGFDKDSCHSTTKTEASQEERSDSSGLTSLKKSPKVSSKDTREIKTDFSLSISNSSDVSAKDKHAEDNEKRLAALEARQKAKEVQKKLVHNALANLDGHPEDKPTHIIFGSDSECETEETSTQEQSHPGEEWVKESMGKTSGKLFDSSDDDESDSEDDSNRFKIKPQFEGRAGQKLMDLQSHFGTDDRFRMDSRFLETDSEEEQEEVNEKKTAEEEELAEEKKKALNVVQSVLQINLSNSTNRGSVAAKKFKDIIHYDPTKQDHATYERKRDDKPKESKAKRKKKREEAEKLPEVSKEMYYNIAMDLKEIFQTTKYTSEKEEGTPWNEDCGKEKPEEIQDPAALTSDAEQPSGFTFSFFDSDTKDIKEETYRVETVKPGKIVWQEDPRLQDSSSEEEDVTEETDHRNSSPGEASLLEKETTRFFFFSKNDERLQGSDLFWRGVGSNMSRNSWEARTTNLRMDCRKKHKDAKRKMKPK
UniProt P04629: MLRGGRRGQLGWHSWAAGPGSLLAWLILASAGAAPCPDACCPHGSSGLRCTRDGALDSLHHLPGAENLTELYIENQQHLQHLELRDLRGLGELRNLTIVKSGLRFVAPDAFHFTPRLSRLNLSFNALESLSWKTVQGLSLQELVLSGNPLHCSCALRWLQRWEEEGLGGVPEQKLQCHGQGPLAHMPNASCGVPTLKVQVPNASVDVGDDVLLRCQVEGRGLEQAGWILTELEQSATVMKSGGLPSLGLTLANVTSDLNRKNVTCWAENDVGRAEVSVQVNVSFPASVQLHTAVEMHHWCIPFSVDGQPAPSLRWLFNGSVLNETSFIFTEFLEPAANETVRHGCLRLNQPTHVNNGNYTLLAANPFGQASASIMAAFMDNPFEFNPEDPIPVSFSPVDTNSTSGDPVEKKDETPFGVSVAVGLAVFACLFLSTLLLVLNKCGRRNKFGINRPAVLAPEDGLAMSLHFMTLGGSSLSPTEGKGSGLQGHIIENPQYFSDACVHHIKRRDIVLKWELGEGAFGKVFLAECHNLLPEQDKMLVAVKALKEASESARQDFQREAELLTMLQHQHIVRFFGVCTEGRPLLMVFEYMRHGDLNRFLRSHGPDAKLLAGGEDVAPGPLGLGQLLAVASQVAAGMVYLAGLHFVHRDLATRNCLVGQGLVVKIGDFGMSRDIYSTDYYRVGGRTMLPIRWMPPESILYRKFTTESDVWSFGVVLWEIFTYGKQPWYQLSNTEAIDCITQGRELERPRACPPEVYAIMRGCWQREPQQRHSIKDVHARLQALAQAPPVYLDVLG
UniProt P10588: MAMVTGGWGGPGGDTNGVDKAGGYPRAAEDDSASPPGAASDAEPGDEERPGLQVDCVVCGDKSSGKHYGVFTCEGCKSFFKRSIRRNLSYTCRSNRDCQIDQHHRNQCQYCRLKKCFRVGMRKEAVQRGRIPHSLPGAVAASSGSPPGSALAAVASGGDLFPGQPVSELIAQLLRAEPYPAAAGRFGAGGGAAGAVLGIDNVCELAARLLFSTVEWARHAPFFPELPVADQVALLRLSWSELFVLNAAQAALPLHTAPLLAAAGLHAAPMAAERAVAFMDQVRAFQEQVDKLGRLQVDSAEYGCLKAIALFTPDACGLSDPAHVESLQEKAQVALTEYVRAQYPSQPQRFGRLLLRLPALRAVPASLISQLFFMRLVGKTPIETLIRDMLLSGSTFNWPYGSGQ
UniProt Q6ZVK8: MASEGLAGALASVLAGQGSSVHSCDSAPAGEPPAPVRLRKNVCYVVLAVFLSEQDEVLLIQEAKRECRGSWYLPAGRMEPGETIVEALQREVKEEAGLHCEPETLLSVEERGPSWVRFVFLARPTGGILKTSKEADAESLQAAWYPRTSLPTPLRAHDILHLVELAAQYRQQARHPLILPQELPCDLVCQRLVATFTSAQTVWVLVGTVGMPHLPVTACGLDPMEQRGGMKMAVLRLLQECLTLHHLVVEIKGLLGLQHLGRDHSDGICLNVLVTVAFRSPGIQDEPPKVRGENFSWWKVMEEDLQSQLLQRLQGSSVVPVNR
UniProt Q9UHK0: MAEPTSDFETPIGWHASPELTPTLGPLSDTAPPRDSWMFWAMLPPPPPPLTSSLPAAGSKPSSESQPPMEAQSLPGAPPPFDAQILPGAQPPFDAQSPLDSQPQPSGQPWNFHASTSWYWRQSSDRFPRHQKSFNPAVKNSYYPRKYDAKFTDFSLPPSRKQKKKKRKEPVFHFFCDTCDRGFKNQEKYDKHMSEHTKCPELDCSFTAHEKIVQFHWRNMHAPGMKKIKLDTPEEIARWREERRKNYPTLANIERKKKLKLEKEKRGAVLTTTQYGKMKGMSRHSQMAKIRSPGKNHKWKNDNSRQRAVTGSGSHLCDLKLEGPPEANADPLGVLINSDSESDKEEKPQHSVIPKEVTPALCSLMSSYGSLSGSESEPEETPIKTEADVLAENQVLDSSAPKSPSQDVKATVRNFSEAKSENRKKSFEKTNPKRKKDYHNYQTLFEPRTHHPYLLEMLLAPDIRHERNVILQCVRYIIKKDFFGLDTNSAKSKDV

What was measured:
Assay in all cases: log2 fold change, soluble protein after heating vs DMSO (PISA); higher = thermal stabilisation; K562 lysate, 10 uM; active = over 0.2 and 3.5 SD of the protein, either way, in both replicates (recomputed)
tozasertib = compound: Cc1cc(Nc2cc(N3CCN(C)CC3)nc(Sc3ccc(NC(=O)C4CC4)cc3)n2)n[nH]1 [tozasertib]
Procedure, shortened: (§1)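 Quantification was by TMTpro 16plex LC-MS/MS with equalised channel sums, applied to the supernatant after 21,000xg for 90 min. Samples were crude K562 extract at 1 mg/mL protein in PBS pH 7.4 with 1 mM MgCl2, treated with 10 μM compound for 30 min, heated for 3 min across 48°C-58°C, pooled and brought to 0.5% NP-40 at 4°C. Values are log-two fold changes in thermal stability relative to solvent controls, from duplicates.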

lapatinib = compound: CS(=O)(=O)CCNCc1ccc(-c2ccc3ncnc(Nc4ccc(OCc5cccc(F)c5)c(Cl)c4)c3c2)o1 [lapatinib]
Procedure, shortened: as §1

crizotinib = compound: C[C@@H](Oc1cc(-c2cnn(C3CCNCC3)c2)cnc1N)c1c(Cl)ccc(F)c1Cl [crizotinib]
Procedure, shortened: as §1

[1] = compound: C[C@H](C1=CC=C(C=C1)C(=O)NC2=C3C=CNC3=NC=C2)N
Procedure, shortened: as §1

duvelisib = compound: C[C@H](Nc1ncnc2nc[nH]c12)c1cc2cccc(Cl)c2c(=O)n1-c1ccccc1 [duvelisib]
Procedure, shortened: as §1

gandotinib = compound: Cc1cc(Nc2cc(CN3CCOCC3)c3nc(C)c(Cc4ccc(Cl)cc4F)n3n2)n[nH]1 [gandotinib]
Procedure, shortened: as §1

doramapimod = compound: Cc1ccc(-n2nc(C(C)(C)C)cc2NC(=O)Nc2ccc(OCCN3CCOCC3)c3ccccc23)cc1 [doramapimod]
Procedure, shortened: as §1

[2] = compound: Cc1cccc(CC(=O)N2CCc3c2ccc(-c2cn(C)c4ncnc(N)c24)c3F)n1
Procedure, shortened: as §1

pictilisib = compound: CS(=O)(=O)N1CCN(Cc2cc3nc(-c4cccc5[nH]ncc45)nc(N4CCOCC4)c3s2)CC1 [pictilisib]
Procedure, shortened: as §1

bafetinib = compound: Cc1ccc(NC(=O)c2ccc(CN3CC[C@H](N(C)C)C3)c(C(F)(F)F)c2)cc1Nc1nccc(-c2cncnc2)n1 [bafetinib]
Procedure, shortened: as §1

Measured: log2 fold change

NUDT5 (UniProt C9JYY9)
inactive: tozasertib 0.004

NOM1 (UniProt Q5C9Z4)
inactive: lapatinib -0.04 | crizotinib -0.059 | [1] 0.069 | duvelisib -0.036 | gandotinib 0.108 | tozasertib 0.087 | doramapimod -0.075 | [2] 0.024

NRGN (UniProt Q92686)
inactive: pictilisib 0.131 | crizotinib -0.099 | duvelisib -0.073 | doramapimod 0.02 | bafetinib -0.088

NOCT (UniProt Q9UK39)
inactive: lapatinib -0.025 | crizotinib 0.024 | duvelisib 0.039 | tozasertib 0.111 | doramapimod 0.063

NRSN2 (UniProt Q9GZP1)
inactive: duvelisib 0.08

NOL8 (UniProt Q76FK4)
inactive: lapatinib -0.076 | crizotinib -0.049 | [1] -0.075 | duvelisib 0.047 | gandotinib -0.293 | doramapimod 0.086 | [2] 0.078

NTRK1 (UniProt P04629)
inactive: crizotinib 0.037 | [1] -0.172 | duvelisib 0.106 | gandotinib 0.484 | tozasertib 0.074 | doramapimod 0.09 | [2] 0.272

NR2F6 (UniProt P10588)
inactive: crizotinib -0.046 | duvelisib 0.011 | tozasertib 0.208 | doramapimod -0.074

NUDT18 (UniProt Q6ZVK8)
inactive: crizotinib -0.077 | [1] -0.15 | gandotinib 0.035 | tozasertib -0.001 | doramapimod 0.062 | [2] -0.008

NUFIP1 (UniProt Q9UHK0)
inactive: pictilisib 0.022 | crizotinib -0.162 | [1] -0.027 | duvelisib 0.064 | gandotinib 0 | tozasertib -0.119 | doramapimod -0.172 | bafetinib -0.104 | [2] 0.071
